Measured data: PubChem BioAssay AID1508588 (Peter MacCallum Cancer Centre, 2020)

- Screen: 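Knock-downs boosting vemurafenib effects on melanoma cell growth or lactate release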 (primary screen)
- Cell system: human WM266.4 melanoma cells (BRAF V600 mutant)
- Reagents: siRNA pool against human genes, 40 nM
- Time to read-out: 96 h from transfection to read-out
- Treatment: vemurafenib 300 nM (about IC25), added 48 h after transfection, for 48 h; comparison arm got DMSO vehicle only
- Read-out: 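Cell gain (DAPI nuclei at end minus before drug, mean of two replicates) and medium lactate by absorbance per cell, both as ratio to non-targeting siRNA, also grouped into fold-change classes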
- Scale: cell gain with vemurafenib: higher = more cell gain than with non-targeting siRNA; lactate per cell with vemurafenib: higher = more lactate made per cell
- Hit rule: 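Enhancement is called by pairing each knock-down's vehicle-arm and drug-arm fold-change classes for viability or glycolysis; which class combinations qualify is not given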
- Meaning of the calls: active = enhances vemurafenib effect; inactive = no enhancement seen
The deposit covers about 18,000 reagents; shown is a random part of them. Of all reagents, 790 (4.4%) got an active call. 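Calls rest on a combination of fold-change classes in drug and vehicle arms, not all shown here.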

gene	cell gain with vemurafenib	lactate per cell with vemurafenib	Call
ATAD3B	0.69	0.38	inactive
CYB561A3	0.73	0.82	inactive
LRRC37A2	0.96	1.23	inactive
NETO1	0.48	1.25	inactive
ZNF772	0.07	3.94	inactive
TLX2	0.87	0.92	inactive
ZNF658	0.54	0.98	inactive
CHST14	0.5	0.88	inactive
WDR59	0.59	1.43	inactive
REG3G	1.44	0.8	inactive
TAFA4	0.67	0.62	inactive
C9orf50	1.14	0.9	inactive
OR5M1	0.75	0.55	inactive
NPC1L1	0.56	1.03	inactive
ZNF692	0.77	1.14	inactive
TRIM55	1.08	0.88	inactive
MYCL	0.55	1.41	inactive
DNAJC27	0.97	1.03	inactive
PTX4	0.6	0.72	inactive
KRTAP4-2	0.78	1.38	inactive
REXO1	0.6	0.97	inactive
CNOT6	0.44	0.81	inactive
SERPINA4	0.45	1.56	inactive
NSA2	-0.16	4.27	inactive
POM121L2	0.51	1.57	inactive
HMGB3	0.51	1.12	inactive
GAB3	0.85	0.8	inactive
NKX2-1	0.98	1.5	inactive
NME6	0.7	0.96	inactive
PCSK4	0.75	1.66	inactive
CYP11B1	0.9	0.53	inactive
MYO5C	1.12	0.4	inactive
FLG	-0.03	0.61	inactive
PHPT1	0.81	0.69	inactive
NPY1R	0.58	0.55	active
GRIN2B	0.37	0.27	inactive
ZBTB32	0.74	1.12	inactive
MFF	0.73	0.91	inactive
CRABP2	0.78	0.78	inactive
LCE1E	0.26	0.82	inactive
HORMAD1	0.93	0.86	inactive
MDM2	1.05	1.05	inactive
FNDC11	0.29	1.66	inactive
SUCNR1	0.7	0.94	inactive
H3C10	0.46	1.17	inactive
KLHL27	0.24	1.62	inactive
TMEM63A	0.71	1.44	inactive
FAT2	-0.08	1.56	inactive
ZNF609	0.38	0.8	inactive
RAD51AP1	0.78	0.21	inactive
PLB1	0.09	0.74	inactive
ESR1	1.19	0.64	inactive
RFT1	0.18	1.12	inactive
OR6C3	0.23	1.28	inactive
COX7A1	0.81	0.85	inactive
OR8U1	0.68	1.15	inactive
CNTN6	0.54	1.11	inactive

Called active, among the entries above:
gene	cell gain with vemurafenib	lactate per cell with vemurafenib	Call
NPY1R	0.58	0.55	active
